No constants are given. Whether binding was seen depends on the method and setting. In cells and extracts the contact can be indirect. Some results given as binding are weak or reduced against the parent protein; the word gives no strength.
Molecular target: AKT2-NTag (AKT2 N-terminally fused with a TAP-Tag consisting of HA-Tag, StrepII-Tag and FLAG-Tag) (UniProt P31751)
Experiment: proximity ligation; Duolink in situ PLA on fixed, permeabilised HEK293T AKT2-NTag cells; anti-AKT2 (mouse) with anti-GAPDH, anti-ENO1 or anti-eEF2 (rabbit); controls with one primary antibody

The chains behind the UniProt entries cited, without tags or fusion partners.
UniProt P31751: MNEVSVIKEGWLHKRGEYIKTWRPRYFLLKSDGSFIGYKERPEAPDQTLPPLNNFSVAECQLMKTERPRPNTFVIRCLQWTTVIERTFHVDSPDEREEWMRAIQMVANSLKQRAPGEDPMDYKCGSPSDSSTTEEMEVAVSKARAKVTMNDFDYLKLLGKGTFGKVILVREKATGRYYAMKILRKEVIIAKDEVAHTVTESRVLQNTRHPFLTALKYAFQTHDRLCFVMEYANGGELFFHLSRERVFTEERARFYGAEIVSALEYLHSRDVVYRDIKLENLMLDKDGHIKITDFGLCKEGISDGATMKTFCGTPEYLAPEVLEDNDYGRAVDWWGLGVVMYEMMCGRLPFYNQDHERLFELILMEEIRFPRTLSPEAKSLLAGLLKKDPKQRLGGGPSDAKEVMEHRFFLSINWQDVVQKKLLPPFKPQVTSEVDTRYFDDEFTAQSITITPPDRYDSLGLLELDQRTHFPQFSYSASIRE
UniProt P04406: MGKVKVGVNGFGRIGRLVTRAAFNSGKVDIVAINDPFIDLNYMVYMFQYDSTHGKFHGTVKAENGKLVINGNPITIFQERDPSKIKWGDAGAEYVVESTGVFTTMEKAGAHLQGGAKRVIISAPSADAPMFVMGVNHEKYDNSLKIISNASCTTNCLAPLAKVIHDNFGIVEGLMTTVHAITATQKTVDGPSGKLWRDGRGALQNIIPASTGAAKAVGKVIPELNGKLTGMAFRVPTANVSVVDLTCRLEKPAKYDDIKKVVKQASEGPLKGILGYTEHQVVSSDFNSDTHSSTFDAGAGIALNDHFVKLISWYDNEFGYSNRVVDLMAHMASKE
UniProt P06733: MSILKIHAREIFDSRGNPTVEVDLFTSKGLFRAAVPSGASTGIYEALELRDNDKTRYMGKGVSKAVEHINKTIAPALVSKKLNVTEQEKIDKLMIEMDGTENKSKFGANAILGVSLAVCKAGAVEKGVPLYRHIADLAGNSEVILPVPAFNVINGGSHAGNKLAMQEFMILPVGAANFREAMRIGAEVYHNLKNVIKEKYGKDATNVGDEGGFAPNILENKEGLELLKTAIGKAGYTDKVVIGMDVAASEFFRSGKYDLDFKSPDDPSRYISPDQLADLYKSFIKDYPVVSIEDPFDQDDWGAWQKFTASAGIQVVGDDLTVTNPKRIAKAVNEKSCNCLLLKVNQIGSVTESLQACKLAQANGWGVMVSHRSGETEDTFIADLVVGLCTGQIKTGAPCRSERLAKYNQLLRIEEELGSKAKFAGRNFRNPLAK

| Substance | binding |
| --- | --- |
| Glyceraldehyde-3-phosphate-dehydrogenase (from UniProt P04406 1-335) | binds |
| α-enolase (from UniProt P06733 1-434) | binds |

Source: paper PMC3688836
